The list shows only some results of the screen, not a fair sample: it gathers tests that were run many times, whatever their T/C, doses with no T/C, and many T/C values between a quarter and a half above the control. Other doses and runs of a compound stand elsewhere. T/C gives the treated animals as a percentage of the vehicle group. Some entries give survivors of the animals treated and no T/C: the source holds a T/C of zero for them, seemingly a mark for toxic or unscored doses. Some doses without a T/C left all or most animals alive at the check, yet need not have been tolerated: the source hardly ever lists a survival T/C far under the control, and the zero likely stands for such cases as well. Counts of survivors are from the toxicity check (mostly the fifth day) where no day follows; animals may have died later. Schedule codes are those of the source, taken here to give the interval after Q, in days (D) or hours (H), and the number of doses after X. Some entries hold several experiments; the results are listed from low to high. For survival time, this PubChem deposit counts one and a half times the control or more as active, and values a quarter to a half above the control carry no call in these data; other NCI protocols may use other cut-offs. Some T/C values are followed by the survivors on the day toxicity was checked, most often the fifth; where none is given, no animal had died by that day. Additions like (4×) stand for listed records that agree. Some schedule codes hold Z or #, which are not explained here.
Test system: CD2F1 mice, L1210 leukemia ip, survival T/C
Assay: NCI In Vivo Anticancer Drug Screen. Data for tumor model L1210 Leukemia (intraperitoneal) in CD2F1 (CDF1) mice
Conditions: higher T/C = longer survival
In short: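 Activity against a transplanted murine tumor was judged by comparing the compound group with a vehicle group. The outcome in the treated animals was divided by that in the controls.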

[1] = T/C endpoint: mean survival time, dose: 320.0 mg/kg/injection, schedule: Q01DX001 (ip), vehicle: alkali diluted with water

## S=c1nc[nH]c2nc[nH]c12
T/C endpoint: mean survival time, dose: 160.0 mg/kg/injection, schedule: Q01DX009 (ip), vehicle: other
  survivor count: 5 of 6
T/C endpoint: mean survival time, dose: 160.0 mg/kg/injection, schedule: Q04DX002 (ip), vehicle: saline
  T/C: 144 % of control
T/C endpoint: mean survival time, dose: 180.0 mg/kg/injection, schedule: Q04DX003 (ip), vehicle: saline
  T/C: 147 % of control
T/C endpoint: mean survival time, dose: 180.0 mg/kg/injection, schedule: Q## X006 (ip), vehicle: saline
  T/C: 146 % of control
T/C endpoint: mean survival time, dose: 200.0 mg/kg/injection, schedule: Q04DX003 (ip), vehicle: alkali diluted with saline
  T/C: 141, 144, 156 [4 of 6 alive], 157 % of control
T/C endpoint: mean survival time, dose: 225.0 mg/kg/injection, schedule: Q04DX003 (ip), vehicle: alkali diluted with saline
  T/C: 126 % of control
T/C endpoint: mean survival time, dose: 250.0 mg/kg/injection, schedule: Q04DX003 (ip), vehicle: alkali diluted with saline
  T/C: 128 % of control
T/C endpoint: mean survival time, dose: 255.0 mg/kg/injection, schedule: Q01DX001 (ip), vehicle: alkali diluted with saline
  T/C: 130 % of control [8 of 10 alive]
T/C endpoint: mean survival time, dose: 270.0 mg/kg/injection, schedule: Q04DX003 (ip), vehicle: saline
  T/C: 140 % of control
T/C endpoint: mean survival time, dose: 270.0 mg/kg/injection, schedule: Q## X002 (ip), vehicle: saline
  T/C: 147 % of control [9 of 10 alive]
[1]
  T/C: 132 % of control [4 of 6 alive]
  survivor count: 0 of 3
T/C endpoint: mean survival time, dose: 320.0 mg/kg/injection, schedule: Q01DX005 (ip), vehicle: alkali diluted with water
  survivor count: 1 of 6
T/C endpoint: mean survival time, dose: 380.0 mg/kg/injection, schedule: Q01DX001 (ip), vehicle: alkali diluted with saline
  survivor count: 0 of 10
T/C endpoint: mean survival time, dose: 400.0 mg/kg/injection, schedule: Q04DX003 (ip), vehicle: alkali diluted with saline
  survivor count: 0 of 6 and 3 of 6
T/C endpoint: mean survival time, dose: 400.0 mg/kg/injection, schedule: Q04DX003 (ip), vehicle: alkali diluted with water
  survivor count: 2 of 6
T/C endpoint: mean survival time, dose: 416.85 mg/kg/injection, schedule: Q04DX003 (ip), vehicle: alkali diluted with saline
  survivor count: 10 of 10
T/C endpoint: mean survival time, dose: 450.0 mg/kg/injection, schedule: Q04DX003 (ip), vehicle: alkali diluted with saline
  survivor count: 0 of 8
T/C endpoint: mean survival time, dose: 607.0 mg/kg/injection, schedule: Q04DX003 (ip), vehicle: saline with Tween-80
  survivor count: 6 of 6
T/C endpoint: mean survival time, dose: 920.0 mg/kg/injection, schedule: Q04DX003 (ip), vehicle: saline with Tween-80
  survivor count: 5 of 6
T/C endpoint: median survival time, dose: 20.0 mg/kg/injection, schedule: Q01DX005 (ip), vehicle: Klucel (hydroxypropylcellulose) (HPC)
  T/C: 135 % of control
T/C endpoint: median survival time, dose: 20.0 mg/kg/injection, schedule: Q01DX005 (ip), vehicle: alkali diluted with saline
  T/C: 111, 112, 116, 123, 149, 150, 151 % of control
T/C endpoint: median survival time, dose: 20.0 mg/kg/injection, schedule: Q01DX005 (ip), vehicle: alkali diluted with water, evaluated on day 20
  T/C: 105, 109, 118, 134, 141, 144, 145 % of control
T/C endpoint: median survival time, dose: 20.0 mg/kg/injection, schedule: Q01DX005 (ip), vehicle: alkali diluted with water, evaluated on day 30
  T/C: 106, 109 (2×), 110 (2×), 111 [5 of 6 alive], 112 (2×), 114 (3×), 116 (5×), 118 (4×), 119, 120, 121 (3×), 122 (2×), 123 (2×), 128 (2×), 134, 135, 139 % of control
T/C endpoint: median survival time, dose: 20.0 mg/kg/injection, schedule: Q01DX005 (ip), vehicle: alkali diluted with water, evaluated on day 35
  T/C: 118 % of control
T/C endpoint: median survival time, dose: 20.0 mg/kg/injection, schedule: Q01DX005 (ip), vehicle: saline
  T/C: 106, 125 (2×), 135, 143, 191 % of control
T/C endpoint: median survival time, dose: 20.0 mg/kg/injection, schedule: Q01DX009 (ip), vehicle: water, evaluated on day 5
  T/C: 134 % of control
T/C endpoint: median survival time, dose: 20.0 mg/kg/injection, schedule: Q01DX009 (ip), vehicle: water, evaluated on day 33
  T/C: 134 % of control
T/C endpoint: median survival time, dose: 25.0 mg/kg/injection, schedule: Q01DX005 (ip), vehicle: alkali diluted with water
  T/C: 126 % of control
T/C endpoint: median survival time, dose: 30.0 mg/kg/injection, schedule: Q01DX009 (ip), vehicle: alkali diluted with saline, evaluated on day 5
  T/C: 129 % of control
T/C endpoint: median survival time, dose: 30.0 mg/kg/injection, schedule: Q01DX009 (ip), vehicle: alkali diluted with saline, evaluated on day 45
  T/C: 126 % of control
T/C endpoint: median survival time, dose: 40.0 mg/kg/injection, schedule: Q01DX005 (ip), vehicle: Klucel (hydroxypropylcellulose) (HPC)
  T/C: 140 % of control
T/C endpoint: median survival time, dose: 40.0 mg/kg/injection, schedule: Q01DX005 (ip), vehicle: alkali diluted with saline
  T/C: 116, 118, 125, 130, 176, 182 [5 of 6 alive], 204 % of control
T/C endpoint: median survival time, dose: 40.0 mg/kg/injection, schedule: Q01DX005 (ip), vehicle: alkali diluted with water, evaluated on day 20
  T/C: 116, 136, 139, 141, 149, 150, 156 % of control
T/C endpoint: median survival time, dose: 40.0 mg/kg/injection, schedule: Q01DX005 (ip), vehicle: alkali diluted with water, evaluated on day 30
  T/C: 112, 117 (2×), 118 (2×), 119, 120, 121, 125 [5 of 6 alive], 128, 129, 130, 131, 134, 135, 136 (3×), 136 [5 of 6 alive], 137 (3×), 138, 139 (2×), 140, 141 (2×), 142, 146 (2×), 148, 152, 166 % of control

— PubChem BioAssay AID256 (DTP/NCI, 2004)
